Values joined by “and” are separate entries in the source; they are usually repeats but may differ in a detail not shown here. Equal entries are not always repeated.

The data set in a line: In vitro test of NO uptake: manometer pressure and IR spectrum of freeze-dried product. It is filed as binding. Particulars: freeze-dried reaction solution after the in vitro NO test. On the procedure: The resulting solution was placed in a three-necked pear-shaped flask and stirred by a magnetic stirrer at constant speed of 1000 rpm, at a constant temperature in the range 20° C.-24° C. A manometer was attached to the flask, and purified, dried nitric oxide gas (known volume in the range 3-5cm^3) was introduced via a septum, using a gas syringe, at atmospheric pressure into the headspace above the reaction solution. The pressure within the flask was recorded periodically over a period of one hour.
A control experiment was carried out according to the above but without any complex present.
On completion of each in vitro test, the reaction solution was freeze-dried. An infrared spectrum of the freeze-dried product provided information on metal-NO bond formation.

In the case of `O.O.O=C([O-])CN(CCN(CC(=O)[O-])CC(=O)O)CC(=O)[O-].[Cl-].[K+].[Ru+3]` [Example 1, K[Ru(hedta)Cl]2H2O], the “IR peak indicating the presence of a Ru-NO bond” value turned out to be 1897 cm⁻¹. As for `CC(=O)C=C(C)[O-].O=C([O-])CN(CCN(CC(=O)O)CC(=O)O)CC(=O)[O-].[Ru+3]` [Example 2, [Ru(H2edta)(acac)]], the “IR peak indicating the presence of a Ru-NO bond” value worked out at 1896 cm⁻¹. Turning to `O.O=C([O-])CN(CCO)CCN(CC(=O)[O-])CC(=O)[O-].[Cl-].[K+].[Ru+3]` [Example 3, K[Ru(hedtra)Cl]H2O], the “IR peak indicating the presence of a Ru-NO bond” value was found to be 1889 cm⁻¹. `O.O=C([O-])c1cccc(C(=O)[O-])n1.O=C([O-])c1cccc(C(=O)[O-])n1.[K+].[Ru+3]` [Example 4, K[Ru(dipic)2]H2O]: the “IR peak indicating the presence of a Ru-NO bond” value amounted to 1915 cm⁻¹. On to `O.O=C([O-])CN(CCN(CC(=O)O)CC(=O)O)CC(=O)[O-].[Cl-].[Cl-].[K+].[Ru+3]` [Example 6, K[Ru(H2edta)Cl2]H2O], for which the “IR peak indicating the presence of a Ru-NO bond” value stood at 1896 cm⁻¹. The result for `CC(=O)[O-].CC(=O)[O-].CC(=O)[O-].CC(=O)[O-].O=[N+]([O-])[O-].[Ru+3].[Ru+3]` [Example 11, [Ru2(OAc)4]NO3] reads 1891 cm⁻¹; that for `CCC(=O)[O-].CCC(=O)[O-].CCC(=O)[O-].CCC(=O)[O-].O=[N+]([O-])[O-].[Ru+3].[Ru+3]` [Example 12, [Ru2(OCOEt)4]NO3], 1891 cm⁻¹. `O=C([O-])C(=O)[O-].O=C([O-])C(=O)[O-].O=C([O-])C(=O)[O-].[K+].[K+].[K+].[Ru+3]` [Example 13, K3[Ru(ox)3]]: the “IR peak indicating the presence of a Ru-NO bond” value is 1889 cm⁻¹. As to `CC(=O)[O-].CC(=O)[O-].CC(=O)[O-].CC(=O)[O-].[Cl-].[Ru+3].[Ru+3]` [Example 14, [Ru2(OAc)4]Cl], the “IR peak indicating the presence of a Ru-NO bond” value was 1895 cm⁻¹. In the case of `NCCN.NCCN.NCCN.[I-].[I-].[I-].[Ru+3]` [Example 16, [Ru(en)3]I3], the “IR peak indicating the presence of a Ru-NO bond” value amounted to 1906 cm⁻¹. `O.[Cl-].[Cl-].[Cl-].[Cl-].[K+].[Ru+3].c1cnc2c(c1)ccc1cccnc12` [Example 17, K[RuCl4(phen)]H2O]: the “IR peak indicating the presence of a Ru-NO bond” value is 1904 cm⁻¹. The result for `CS(C)=O.CS(C)=O.N.[Cl-].[Cl-].[Cl-].[Ru+3]` [Example 20, [RuCl3(dmso)2(NH3)]] reads 1889 cm⁻¹; that for `N.N.N.N.N.N.[Cl-].[Cl-].[Cl-].[Ru+3]` [Example 21, [Ru(NH3)6]Cl3], 1910 cm⁻¹; that for `CS(C)=O.CS(C)=O.CS(C)=O.CS(C)=O.[Cl][Ru][Cl]` [Example 22, Cis-[RuCl2(dmso)4]], 1881 cm⁻¹. As for `CS(C)=O.CS(C)=O.CS(C)=O.N.[Cl-].[Cl-].[Ru+2]` [Example 23, cis-[RuCl2(dmso)3(NH3)]], the “IR peak indicating the presence of a Ru-NO bond” value is 1893 cm⁻¹.

`CS(C)=O.CS(C)=O.CS(C)=O.[Cl-].[Cl-].[Cl-].[Ru+3]` [Example 24, [RuCl3(dmso)3]]: the “IR peak indicating the presence of a Ru-NO bond” value is 1880 cm⁻¹.

On to `Cc1occc(=O)c1[O][Ru]([O]c1c(C)occc1=O)[O]c1c(C)occc1=O` [Example 26, [Ru(maltol)3]], for which the “IR peak indicating the presence of a Ru-NO bond” value was found to be 1866 cm⁻¹.

Consider `CC#N.CC#N.CC(=O)C=C(C)[O-].CC(=O)C=C(C)[O-].O=S(=O)([O-])C(F)(F)F.[Ru+3]` [Example 27, [Ru(acac)2(MeCN)2](CF3SO3)], for which the “IR peak indicating the presence of a Ru-NO bond” value came out at 1899 cm⁻¹. Take `O.[Cl-].[Cl-].[Cl][Ru]([Cl])[Cl].[K+].[K+]` [Example 28, K2[RuCl5(H2O)]]: the “IR peak indicating the presence of a Ru-NO bond” value came to 1903 cm⁻¹. The value for `O.O=C([O-])C(=O)[O-].[Os+2].c1ccc(-c2ccccn2)nc1.c1ccc(-c2ccccn2)nc1` [Example 29, [Os(ox)(bipy)2].H2O] was 1894 cm⁻¹; that for “(H2pic)[RuCl2(pic)2](Hpic)H2O [Example 5]” was 1888 cm⁻¹.

Take K[Ru(H2dtpa)Cl]H2O [Example 8]: the “IR peak indicating the presence of a Ru-NO bond” value came to 1905 cm⁻¹. For the compound K[Ru(hnta)2]½H2O [Example 7], the “IR peak indicating the presence of a Ru-NO bond” value turned out to be 1889 cm⁻¹. As for K[RuCl4(bipy)] [Example 19], the “IR peak indicating the presence of a Ru-NO bond” value worked out at 1885 cm⁻¹.

As to [Ru3O(OAc)6](OAc) [Example 10], the “IR peak indicating the presence of a Ru-NO bond” value was determined as 1877 cm⁻¹. For the compound [Ru3O(lac)6](lac) [Example 9], the “IR peak indicating the presence of a Ru-NO bond” value was determined as 1884 cm⁻¹.

As to [Ru(NH3)5Cl]Cl2 [Example 15], the “IR peak indicating the presence of a Ru-NO bond” value is 1909 cm⁻¹ and 1928 cm⁻¹. The result for [Ru(mtc)3] [Example 25] reads 1862 cm⁻¹.
